Publication PMC4392834
Results are given in words; binding and its absence hold for the method and conditions named. Binding seen in cells or lysates may run through a third protein. Values belong to the binder of their own block, whether it stands above or below them.

By UniProt entry, the sequences of proteins in these tests, tags left out.
UniProt P02833: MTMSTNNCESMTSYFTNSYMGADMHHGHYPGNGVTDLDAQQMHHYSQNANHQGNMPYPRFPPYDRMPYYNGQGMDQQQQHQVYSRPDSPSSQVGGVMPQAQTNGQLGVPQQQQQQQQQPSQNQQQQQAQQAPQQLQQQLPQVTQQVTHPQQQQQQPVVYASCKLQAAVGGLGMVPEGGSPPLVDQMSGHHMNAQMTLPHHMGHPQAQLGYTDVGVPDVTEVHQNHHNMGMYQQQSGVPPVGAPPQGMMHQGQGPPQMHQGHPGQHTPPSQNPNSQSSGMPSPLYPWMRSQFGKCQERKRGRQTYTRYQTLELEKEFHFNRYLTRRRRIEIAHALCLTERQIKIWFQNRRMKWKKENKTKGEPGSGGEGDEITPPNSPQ
UniProt P83949: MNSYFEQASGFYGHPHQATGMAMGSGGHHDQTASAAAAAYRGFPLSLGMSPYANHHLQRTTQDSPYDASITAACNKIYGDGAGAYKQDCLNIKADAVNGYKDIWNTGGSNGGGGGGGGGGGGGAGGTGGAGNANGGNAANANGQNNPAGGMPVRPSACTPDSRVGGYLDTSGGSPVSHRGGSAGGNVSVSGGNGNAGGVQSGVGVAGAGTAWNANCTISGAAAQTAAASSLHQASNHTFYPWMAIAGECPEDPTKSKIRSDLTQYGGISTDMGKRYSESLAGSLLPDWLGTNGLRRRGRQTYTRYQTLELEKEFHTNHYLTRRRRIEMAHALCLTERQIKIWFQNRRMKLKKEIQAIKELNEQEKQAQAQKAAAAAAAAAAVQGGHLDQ
UniProt P09077: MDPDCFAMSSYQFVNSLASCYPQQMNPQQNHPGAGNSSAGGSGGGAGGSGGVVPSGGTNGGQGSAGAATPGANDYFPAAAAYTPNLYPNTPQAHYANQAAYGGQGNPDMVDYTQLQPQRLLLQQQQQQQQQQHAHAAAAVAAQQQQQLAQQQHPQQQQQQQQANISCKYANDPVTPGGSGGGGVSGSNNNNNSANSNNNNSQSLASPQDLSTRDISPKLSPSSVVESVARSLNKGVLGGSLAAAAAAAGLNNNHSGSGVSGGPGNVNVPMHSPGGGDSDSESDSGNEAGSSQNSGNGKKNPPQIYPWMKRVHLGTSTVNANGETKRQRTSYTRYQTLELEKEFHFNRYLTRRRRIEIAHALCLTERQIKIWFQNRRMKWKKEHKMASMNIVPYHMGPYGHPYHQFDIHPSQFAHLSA

Columns and labels:
Assay in all cases: split reporter; Venus BiFC: VC-Hox and VN-TF co-expressed in live Drosophila embryos with the corresponding Hox-Gal4 driver (abdA-Gal4 for AbdA); epidermis, stage 10-12, quantified at stage 10; affected if equal or lower than 50% of wild type, stronger if 120% or more
[1] = molecular target: VC-AbdB (Drosophila melanogaster) (UniProt P09087)
[2] = molecular target: VC-Antp (Drosophila melanogaster) (UniProt P02833)
[3] = molecular target: VC-Ubx (Drosophila melanogaster) (UniProt P83949)
[4] = molecular target: VC-Scr (Drosophila melanogaster) (UniProt P09077)

B1: VN-Pan (protein, UniProt P91943 1-751)
chain: MPHTHSRHGSSGDDLCSTDEVKIFKDEGDREDEKISSENLLVEEKSSLIDLTESEEKGHKISRPDHSPVFNKLDTHAPSFNMGYLVSPYSYANGSPSGLPVTMANKIGLPPFFCHNADPLSTPPPAHCGIPPYQLDPKMGLTRPALYPFAGGQYPYPMLSSDMSQVASWHTPSVYSASSFRTPYPSSLPINTTLASDFPFRFSPSLLPSVHATSHHVINAHSAIVGVSSKQECGVQDPTTNNRYPRNLEAKHTSNAQSNESKETTNDKKKPHIKKPLNAFMLYMKEMRAKVVAECTLKESAAINQILGRRWHELSREEQSKYYEKARQERQLHMELYPGWSARDNYGYVSKKKKRKKDRSTTDSGGNNMKKCRARFGLDQQSQWCKPCRRKKKCIRYMEALNGNGPAEDGSCFDEHGSQLSDDDEDDYDDDKLGGSCGSADETNKIEDEDSESLNQSMPSPGCLSGLSSLQSPSTTMSLASPLNMNANSATNVIFPASSNALLIVGADQPTAQQRPTLVSTSGSSSGSTSSISTTPNTSSTVSPVTCMTGPCLGSSQERAMMLGNRFSHLGMGLSPPVVSTSTSKSEPFFKPHPTVCNNPIFALPSIGNCSLNISSMPNTSRNPIGANPRDINNPLSINQLTKRREYKNVELIEASESKTIVAHAATSIIQHVAVNGYHANHSLLNSNLGHLHHQLNNRTENPNRSEQTMLSVSNHSVNSSECHKESDSQAIVSSNPPNAGSSDNGVISVS
binding [1]: no binding

B2: VN-Spalt major (protein, UniProt P39770 1-1365)
chain: MKNHLSNVLCAMRSDFKDNHQETINKMIQFGTVKYGIVKQLKDRARSADKDIGSDQEENGGCSPLTTATTTASPSRSPEPEEEQPEEQSTSEQSIPEQSTPDHQLENDIKSEAKSEIEPVEDNNNRVAMTKPSSEEREPNASGSMPSSPVAEASAEEAATERTPEKEKEKDVEVDVEKPDEAPSSAVPSTEVTLPGGAGAPVTLEAIQNMQMAIAQFAAKTIANGSNGADNEAAMKQLAFLQQTLFNLQQQQLFQIQLIQQLQSQLALNQAKQEEDTEEDADQEQDQEQETDTYEEEERIADMELRQKAEARMAEAKARQHLINAGVPLRESSGSPAESLKRRREHDHESQPNRRPSLDNTHKADTAQDALAKLKEMENTPLPFGSDLASSIITNHDDLPEPNSLDLLQKRAQEVLDSASQGILANSMADDFAFGEKSGEGKGRNEPFFKHRCRYCGKVFGSDSALQIHIRSHTGERPFKCNVCGSRFTTKGNLKVHFQRHAQKFPHVPMNATPIPEHMDKFHPPLLDQMSPTDSSPNHSPAPPPLGSAPASFPPAFPGLQNLYRPPMEILKSLGAAAPHQYFPQELPTDLRKPSPQLDEDEPQVKNEPVEEKDQREEHEQEMAECSEPEPEPLPLEVRIKEERVEEQEQVKQEDHRIEPRRTPSPSSEHRSPHHHRHSHMGYPPVVQPIQPAALMHPQSSPGSQSHLDHLPTPGQLPPREDFFAERFPLNFTTAKMLSPEHHSPVRSPAGGALPPGVPPPPHHHPHHMARSPFFNPIKHEMAALLPRPHSNDNSWENFIEVSNTCETMKLKELMKNKKISDPNQCVVCDRVLSCKSALQMHYRTHTGERPFKCRICGRAFTTKGNLKTHMAVHKIRPPMRNFHQCPVCHKKYSNALVLQQHIRLHTGEPTDLTPEQIQAAEIRDPPPSMMPGHFMNPFAAAAFHFGALPGGPGGPPGPNHGAHNGALGSESSQGDMDDNMDCGEDYDDDVSSEHLSNSNLEQEGDRSRSGDDFKSLLFEQKLRIDATGVVNTNPVRPRSSASSHGHSVGSTSAPTSPSVHASSQVIKRSSSPARSEASQGALDLTPRAAPTSSSSSRSPLPKEKPVSPPSLPRSPSGSSHASANILTSPLPPTVGIDCLPPGLQHHLQQQHQHLMQQQAAVAAAAAAQHHHHQQMAALHQHQEQLRREAAEAQQKAAAAAAAAAAAAAAQRQTPPQARDQRQEGGPGAGPPPNPLMGARPPFGMFPNLPLFPPATTQNMCNAMNQIAQSVMPAAPFNPLALSGVRGSTTCGICYKTFPCHSALEIHYRSHTKERPFKCSICDRGFTTKGNLKQHMLTHKIRDMEQETFRNRAVKYMSEWNEDRE
binding [1]: no binding

binding [2]: no binding
B3: VN-Nautilus (protein, UniProt P22816 1-332)
chain: MTKYNSGSSEMPAAQTIKQEYHNGYGQPTHPGYGFSAYSQQNPIAHPGQNPHQTLQNFFSRFNAVGDASAGNGGAASISANGSGSSCNYSHANHHPAELDKPLGMNMTPSPIYTTDYDDENSSLSSEEHVLAPLVCSSAQSSRPCLTWACKACKKKSVTVDRRKAATMRERRRLRKVNEAFEILKRRTSSNPNQRLPKVEILRNAIEYIESLEDLLQESSTTRDGDNLAPSLSGKSCQSDYLSSYAGAYLEDKLSFYNKHMEKYGQFTDFDGNANGSSLDCLNLIVQSINKSTTSPIQNKATPSASDTQSPPSSGATAPTSLHVNFKRKCST

binding [3]: no binding
B4: VN-Zfh-1 (protein, UniProt P28166 1-1054)
chain: MLSCLAPSSSRFGQEDTIIQQSMPSTSPFAMQFPSLASTLLHHNQSPKHSNPGSSGIQDAHPNQPGAAADAFLVKCTQCHKRFPEYQSLSEHIASEHPHDKLNCGAAQPESDAEDEQSNMSGSSRRYAKSPLASNNNSSTANANNNSTSSQSMNNNSELAKNHNSANKMSPMCSPGSLTPGDLFAQLQHPPPQLPPHLHAQFMAAAASLAMQSARTASSPSQQQQQQLQQQQQLQQQQQHQMAMQQLLPPQLPGSNSSVGSNSAYDLDLSAPRSTSSPGSTTGDLSGAYPCMQCTASFASREQLEQHEQLHSPCGPAAVSNVSQTCRICHKAFANVYRLQRHMISHDESALLRKFKCKECDKAFKFKHHLKEHVRIHSGEKPFGCDNCGKRFSHSGSFSSHMTSKKCISMGLKLNNNRALLKRLEKSPGSASSASRRSPSDHGKGKLPEQPSLPGLPHPMSYFASDAQVQGGSAAPAPFPPFHPNYMNAALLAFPHNFMAAAAGLDPRVHPYSIQRLLQLSAAGQQQREEEREEQQKQQQHDEEETPDEPKLVMDIEEPETKEMAPTPEATEAATPIKREESREASPDPESYRSSSQAIKQEQEPLNVAEERQTPVEEHAPVEHAADLRCSRCSKQFNHPTELVQHEKVLCGLIKEELEQHFQQQQATSFALASASEEDEEDEEMDVEEEPRQESGERKVRVRTAINEEQQQQLKQHYSLNARPSRDEFRMIAARLQLDPRVVQVWFQNNRSRERKMQSFQNNQAAGAAPPMPIDSQASLTREDQPLDLSVKRDPLTPKSESSPPYIAPPSGEALNPEAINLSRKFSTSASMSPASISPSSAAALYFGAAPPPSPPNSQLDSTPRSGQAFPGLPPYMLPMSLPMEALFKMRPGGDFASNHALMNSIKLPDYRGTSLSPGGSEKRSWRDDDSRISHEDEFGAGVLMPPKPRRGKAETHGHAGDPDLPYVCDQCDKAFAKQSSLARHKYEHSGQRPYQCIECPKAFKHKHHLTEHKRLHSGEKPFQCSKCLKRFSHSGSYSQHMNHRYSYCKPYRE

binding [4]: no binding
B5: VN-Knirps (protein, UniProt P10734 1-429)
chain: MNQTCKVCGEPAAGFHFGAFTCEGCKSFFGRSYNNISTISECKNEGKCIIDKKNRTTCKACRLRKCYNVGMSKGGSRYGRRSNWFKIHCLLQEHEQAAAAAGKAPPLAGGVSVGGAPSASSPVGSPHTPGFGDMAAHLHHHHQQQQQQQVPRHPHMPLLGYPSYLSDPSAALPFFSMMGGVPHQSPFQLPPHLLFPGYHASAAAAAASAADAAYRQEMYKHRQSVDSVESQNRFSPASQPPVVQPTSSARQSPIDVCLEEDVHSVHSHQSSASLLHPIAIRATPTTPTSSSPLSFAAKMQSLSPVSVCSIGGETTSVVPVHPPTVSAQEGPMDLSMKTSRSSVHSFNDSGSEDQEVEVAPRRKFYQLEAECLTTSSSSSSHSAAHSPNTTTAHAEVKRQKLGGAEATHFGGFAVAHNAASAMRGIFVCV

binding [3]: no binding
binding [2]: no binding
B6: VN-Kn (protein, UniProt P56721 1-575)
chain: MEWGRKLYPSAVSGPRSAGGLMFGLPPTAAVDMNQPRGPMTSLKEEPLGSRWAMQPVVDQSNLGIGRAHFEKQPPSNLRKSNFFHFVIALYDRAGQPIEIERTAFIGFIEKDSESDATKTNNGIQYRLQLLYANGARQEQDIFVRLIDSVTKQAIIYEGQDKNPEMCRVLLTHEVMCSRCCDKKSCGNRNETPSDPVIIDRFFLKFFLKCNQNCLKNAGNPRDMRRFQVVISTQVAVDGPLLAISDNMFVHNNSKHGRRAKRLDTTEGTGNTSLSISGHPLAPDSTYDGLYPPLPVATPCIKAISPSEGWTTGGATVIIVGDNFFDGLQVVFGTMLVWSELITSHAIRVQTPPRHIPGVVEVTLSYKSKQFCKGSPGRFVYVSALNEPTIDYGFQRLQKLIPRHPGDPEKLQKEIILKRAADLVEALYSMPRSPGGSTGFNSYAGQLAVSVQDGSGQWTEDDYQRAQSSSVSPRGGYCSSASTPHSSGGSYGATAASAAVAATANGYAPAPNMGTLSSSPGSVFNSTSMSAVSSTWHQAFVQHHHAATAHPHHHYPHPHQPWHNPAVSAATAAAV

binding [4]: no binding
B7: VN-Mef2 (protein, UniProt P40791 1-540)
chain: MGRKKIQISRITDERNRQVTFNKRKFGVMKKAYELSVLCDCEIALIIFSSSNKLYQYASTDMDRVLLKYTEYNEPHESLTNKNIIEKENKNGVMSPDSPEAETDYTLTPRTEAKYNKIDEEFQNMMQRNQMAIGGAGAPRQLPNSSYTLPVSVPVPGSYGDNLLQASPQMSHTNISPRPSSSETDSGGMSLIIYPSGSMLEMSNGYPHSHSPLVGSPSPGPSPGIAHHLSIKQQSPGSQNGRASNLRVVIPPTIAPIPPNMSAPDDVGYADQRQSQTSLNTPVVTLQTPIPALTSYSFGAQDFSSSGVMNSADIMSLNTWHQGLVPHSSLSHLAVSNSTPPPATSPVSIKVKAEPQSPPRDLSASGHQQNSNGSTGSGGSSSSTSSNASGGAGGGGAVSAANVITHLNNVSVLAGGPSGQGGGGGGGGSNGNVEQATNLSVLSHAQQHHLGMPNSRPSSTGHITPTPGHDKYEGYPYRALMGHNPRWNLNFAGAPSSDQDVRLAAVAVQQQQQQPHQQQQLGDYDAPNHKRPRISGGWGT
